# Assay results: PMC12040169 (PLOS Biology, 2025)
# Some of the results follow.
# System: T1, CTL2-GFP (C. trachomatis L2/434/Bu, GFP-expressing)
# T1 construct: L2/434/Bu, GFP-expressing
# Design: species or system HeLa; Intracellular C. trachomatis growth in HeLa cells, bulk GFP fluorescence relative to DMSO
# Settings: bulk GFP, single well; 28.5 h, 10 µM; inhibitor
row,Structure (SMILES),% of control remaining [%]
1,Cc1ccc(Cl)cc1-n1cc(-c2ccc(Cl)cc2)nn1 [CBK113045],130.847
2,S=c1[nH]nc(CN2CCSCC2)n1-c1ccc(Cl)cc1 [CBK013868],122.849
3,CCn1c(SCC(=O)Nc2ccc(N3CCOCC3)cc2)nnc1-c1ccncc1 [CBK269765],115.696
4,Cc1ccc(S(N)(=O)=O)cc1NC(=O)c1ccc(S(=O)(=O)N(C)C)cc1 [CBK266050],200.731
5,COC(=O)C(CCSC)NC(=O)c1cccs1 (stereo not drawn) [CBK057972],146.047
6,COc1ccc(C(C)C)cc1-c1cn2ccnc2c(NCc2ccco2)n1 [CBK037269],240.534
7,CCN(CCCCC1NC(=O)NC1=O)Cc1ccncc1 (stereo not drawn) [CBK143967],124.8
8,Cc1nc2ccccc2nc1CSc1nnc(Cc2ccccc2)n1-c1ccccc1 [CBK268360],102.284
9,CCCCc1ccc(C(=O)CSc2nc(N)c(C#N)c(-c3ccc(O)cc3)c2C#N)cc1 [CBK261268],109.284
10,COc1ccc(CN2CCN(S(C)(=O)=O)CC2)c(OC)c1OC [CBK074491],118.015
11,Cc1ccc(-c2nnn(CC(=O)N(CCO)C(C(=O)NC3CCCC3)c3ccc(F)cc3)n2)o1 (stereo not drawn) [CBK084756],109.401
12,Cc1ccc(NC(=O)N2CCn3cccc3C2c2cccnc2)cc1 (stereo not drawn) [CBK287733],102.023
13,COc1ccccc1CN1CCc2[nH]c(=S)[nH]c(=O)c2C1 [CBK288495],103.392
14,Cc1noc(C2(O)CCN(CCc3ccc(F)c(F)c3)C2)n1 (stereo not drawn) [CBK304753],125.6
15,O=C1N(CCc2ccccc2)CC=CCC12CN(Cc1ccc3[nH]ccc3c1)CCO2 (stereo not drawn) [CBK286130],103.43
16,N#Cc1ccccc1N1CCN(c2cncc(-c3ccc(F)cc3F)n2)CC1 [CBK065708],104.532
17,c1ccc(COc2ccc(-n3cnnn3)cc2)nc1 [CBK288196],120.9
18,CCOC(=O)Cc1nc2ccccc2[nH]1 [CBK261674],110.253
19,O=C(Cc1c[nH]cn1)N1CCN(C(=O)c2ccco2)CC1 [CBK144448],114.666
20,CC1CCCN(c2ncnc3c2[nH]c2ccccc23)C1 (stereo not drawn) [CBK287948],74.5367
21,COc1cc(OC)c(NC(=O)c2c(-c3ccccc3)noc2C)cc1Cl [CBK268167],96.3184
22,Cc1nc(C)c(C(=O)Nc2ccc3c(c2)CN(Cc2ccccc2)C3)o1 [CBK281835],121.773
23,COc1ccc(-c2ccnc3[nH]c(=O)ccc23)cc1C [CBK073726],171.683
24,O=C1NCCCC12CCN(Cc1ccc(F)cc1)CC2 [CBK285345],120.781
25,COc1cc(NC(=O)c2cc([N+](=O)[O-])ccc2N2CCN(C)CC2)c2ncccc2c1 [CBK263034],117.964
26,O=C1CC2(CCN(C(=O)c3ccc4cc[nH]c4c3)CC2)Oc2ccc(CN3CCOCC3)cc21 [CBK169469],122.927

row,Structure (SMILES),% of control remaining [%]
1,O=C(CSc1nnc(-c2ccccc2)c(-c2ccccc2)n1)Nc1ccc([N+](=O)[O-])cc1 [CBK263406],76.145
2,COC(=O)c1ccc2c(=O)n(CCc3ccc(S(N)(=O)=O)cc3)c(=S)[nH]c2c1 [CBK268238],103.715
3,O=C(O)CC(C(=O)N1CCOCC1)N1CCCCC1 (stereo not drawn) [CBK287074],112.425
4,CCN1CCN(c2ccc(C(=O)OC)cc2NC(=O)c2ccccc2C)CC1 [CBK269902],125.864
5,CC1=C[C@@H](CNS(C)(=O)=O)[C@H](C(C)C)C[C@H]1Cc1nnc(-c2ccccc2F)o1 [CBK289226],102.194
6,COc1ccccc1CNC(=O)c1ccc(Cl)c(S(=O)(=O)N2CCOCC2)c1 [CBK267060],169.837
7,CCCn1c(=N)n(CCOc2cccc(C)c2)c2ccccc21 [CBK264746B],106.847
8,O=C(c1ccc2cc[nH]c2c1)N1CCN(CC2CCOC2)CC1 (stereo not drawn) [CBK305541],137.674
9,CN(C)c1nc2ccc(OCCN3CCOCC3)cc2s1 [CBK261135],116.37
10,C=C(C)Cn1c(SCC(C)C)nnc1-c1ccccc1C(=O)NC(C)C [CBK200096],123.52
11,Cn1ncc2c1NC(=O)CC2c1c[nH]nc1-c1ccccc1 (stereo not drawn) [CBK287941],125.346
12,COc1ccc2nc(C)cc(N3CCOCC3)c2c1 [CBK066896],117.037
13,Fc1cccc(F)c1-c1cc(Nc2ccc(N3CCOCC3)cc2)ncn1 [CBK037673],82.6274
14,O=C(CNC(=O)OCc1ccccc1)NCC(CCCN1CCN(c2ccccc2)CC1)(c1ccccc1)c1ccccc1 [CBK002293],97.5352
15,COc1ccc(Nc2cc(-c3ccco3)ncn2)cc1OC [CBK090822],126.885
16,Cc1c(Cl)cccc1NC(=S)N1CCC(C(N)=O)(N2CCCCC2)CC1 [CBK264900],111.834
17,CCOC(=O)c1c(NC(=O)CSc2nnc[nH]2)sc2c1CCCC2 [CBK265999],182.542
18,O=C(CN1C(=O)N2CCCN=C2c2ccccc21)NC1CCCCC1 [CBK284396],101.023
19,CCOC(=O)c1cccc(NS(=O)(=O)c2ccc(NC(C)=O)cc2)c1 [CBK034349],110.36
20,Fc1ccc(C2=Nn3cnnc3SC2)c(F)c1 [CBK288078],102.534
21,O=C(NCCCn1ccnc1)c1cc(-c2cccc(Br)c2)nc2ccccc12 [CBK265476],17.2456
22,OCCN1CC2(CCN(CCc3cccc4ccccc34)CC2)c2ccccc21 [CBK137013],108.507
23,N#Cc1cccnc1N1CCC(NC(=O)c2cc(Cl)c[nH]c2=O)CC1 [CBK306586],120.035
24,Cc1ccc(S(=O)(=O)N=C2NCN(CC(=O)O)CN2)cc1 [CBK261983N],101.235
25,Cc1ccc(S(=O)(=O)OC[C@H]2O[C@@H](n3cc(C)c(=O)[nH]c3=O)C[C@H]2O)cc1 [CBK201165],171.068

# Part of the list above, set out differently:
row | Structure (SMILES) | % of control remaining [%]
13 | Fc1cccc(F)c1-c1cc(Nc2ccc(N3CCOCC3)cc2)ncn1 [CBK037673] | 82.6274
14 | O=C(CNC(=O)OCc1ccccc1)NCC(CCCN1CCN(c2ccccc2)CC1)(c1ccccc1)c1ccccc1 [CBK002293] | 97.5352
